The supplement of paper PMC4604168 (melanoma cell lines)
The list shows a part of the results. Many values rest on one well or one pass, so single values are uncertain.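 Cells were imaged in 1,536-well plates, and nuclei stained with an antibody against cleaved PARP were counted against all DNA-stained nuclei to give the apoptosis fraction. Screening doses were chosen to leave most cells alive, and resting and induced cleaved-PARP levels differ strongly between cell lines.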

Legend:
Assay in all cases: cleaved PARP positive nuclei fraction relative to DMSO control; melanoma cells; higher = more apoptosis
Details in all cases: library dose: low library concentration; 72 h
[1] = system: MZ2-MEL
[2] = system: MeWo
[3] = system: RPMI7951
[4] = system: RVH-421
[5] = system: SkMel28
[6] = system: SkMel2
[7] = system: SkMel30
[8] = system: UACC62
[9] = system: WM115
[10] = system: WM1716
[11] = system: WM1745
[12] = system: WM3526
[13] = system: WM3619
[14] = system: WM451Lu

Compound	cleaved PARP positive nuclei fraction [1] [%]	cleaved PARP positive nuclei fraction [2] [%]	cleaved PARP positive nuclei fraction [3] [%]	cleaved PARP positive nuclei fraction [4] [%]	cleaved PARP positive nuclei fraction [5] [%]	cleaved PARP positive nuclei fraction [6] [%]	cleaved PARP positive nuclei fraction [7] [%]	cleaved PARP positive nuclei fraction [8] [%]	cleaved PARP positive nuclei fraction [9] [%]	cleaved PARP positive nuclei fraction [10] [%]	cleaved PARP positive nuclei fraction [11] [%]	cleaved PARP positive nuclei fraction [12] [%]	cleaved PARP positive nuclei fraction [13] [%]	cleaved PARP positive nuclei fraction [14] [%]
CCCCCCCCCCCCCCCCCCOP(=O)([O-])OC1CC[N+](C)(C)CC1 [Perifosine] + O=c1[nH]nc(Sc2ncc([N+](=O)[O-])s2)n1-c1ccc2c(c1)OCCO2 [BI78D3] (first compound 0.4 µM, partner dose 0.2 µM)	77.3	103	60.6	48.7	170	27.3	116	64.6	55.9	314	282	74.3	82.8	62.1
COc1cc([C@@H]2c3cc4c(cc3[C@@H](O[C@@H]3O[C@@H]5CO[C@@H](C)O[C@H]5[C@H](O)[C@H]3O)[C@H]3COC(=O)[C@H]23)OCO4)cc(OC)c1O [etoposide] + Cc1cc(Nc2cc(N3CCN(C)CC3)nc(/C=C/c3ccccc3)n2)n[nH]1 [ENMD2076] (first compound 0.02 µM, partner dose 0.04 µM)	32.8	96.4	62.2	165	89.1	97.2	25.1	86.1	52.2	38.6	82.6	106	104	98.6
COc1cc([C@@H]2c3cc4c(cc3[C@@H](O[C@@H]3O[C@@H]5CO[C@@H](C)O[C@H]5[C@H](O)[C@H]3O)[C@H]3COC(=O)[C@H]23)OCO4)cc(OC)c1O [etoposide] + CS(=O)(=O)c1ccc(C(=O)Nc2ccc(Cl)c(-c3ccccn3)c2)c(Cl)c1 [vismodegib] (first compound 0.02 µM, partner dose 1 µM)	71	133	120	37.2	77.1	161	71.8	279	121	72.6	76.9	47	79.2	199
Cc1ccc(Nc2nccc(N(C)c3ccc4c(C)n(C)nc4c3)n2)cc1S(N)(=O)=O [Pazopanib] + C[C@]1(c2nc3c(C(N)=O)cccc3[nH]2)CCCN1 [Veliparib] (first compound 0.4 µM, partner dose 1.4 µM)	54	134	63.2	163	102	26.3	97.7	222	91.8	278	89.5	315	80.7	65
O=c1[nH]nc(Sc2ncc([N+](=O)[O-])s2)n1-c1ccc2c(c1)OCCO2 + COc1ccc(Cl)c(Nc2nc3ccccc3nc2NS(=O)(=O)c2cccc(NC(=O)C(C)(C)N)c2)c1 [XL147] (first compound 0.2 µM, partner dose 0.8 µM)	78.8	80.3	98.1	137	81.9	98.7	237	135	135	71.7	254	37.5	97.5	112
COc1cc([C@@H]2c3cc4c(cc3[C@@H](O[C@@H]3O[C@@H]5CO[C@@H](C)O[C@H]5[C@H](O)[C@H]3O)[C@H]3COC(=O)[C@H]23)OCO4)cc(OC)c1O [etoposide] + C[C@]1(c2nc3c(C(N)=O)cccc3[nH]2)CCCN1 [Veliparib] (first compound 0.02 µM, partner dose 1.4 µM)	70.2	79	75.6	31	74.3	194	60.9	72.6	157	79.5	105	18	99	23.3
COc1cc([C@@H]2c3cc4c(cc3[C@@H](O[C@@H]3O[C@@H]5CO[C@@H](C)O[C@H]5[C@H](O)[C@H]3O)[C@H]3COC(=O)[C@H]23)OCO4)cc(OC)c1O [etoposide] + COCC[n+]1c2c(n(Cc3cnccn3)c1C)C(=O)c1ccccc1C2=O [YM155] (first compound 0.02 µM, partner dose 0.0004 µM)	182	37	64.3	89.7	84.5	80.8	101	221	78.4	149	104	39.5	87.9	49.8
Cc1cn(-c2cc(NC(=O)c3ccc(C)c(Nc4nccc(-c5cccnc5)n4)c3)cc(C(F)(F)F)c2)cn1 [nilotinib] + CN1CCN(c2ccc3nc(-c4c(N)c5c(F)cccc5[nH]c4=O)[nH]c3c2)CC1 [Dovitinib] (first compound 0.2 µM, partner dose 0.1 µM)	51.8	37.6	88.4	92.7	40.7	73.4	119	37	41.5	25.3	38.6	19.8	81.9	37.3
COc1cc([C@@H]2c3cc4c(cc3[C@@H](O[C@@H]3O[C@@H]5CO[C@@H](C)O[C@H]5[C@H](O)[C@H]3O)[C@H]3COC(=O)[C@H]23)OCO4)cc(OC)c1O [etoposide] + Nc1nc(F)nc2c1ncn2[C@@H]1O[C@H](CO)[C@@H](O)[C@@H]1O [fludarabine] (first compound 0.02 µM, partner dose 0.2 µM)	98.3	398	38	271	179	369	944	122	185	58.3	109	1260	87.9	98.6
Cc1ccc(Nc2nccc(N(C)c3ccc4c(C)n(C)nc4c3)n2)cc1S(N)(=O)=O [Pazopanib] + Cn1c(Nc2ccc(C(F)(F)F)cc2)nc2cc(Oc3ccnc(-c4ncc(C(F)(F)F)[nH]4)c3)ccc21 [CHIR265] (first compound 0.4 µM, partner dose 0.08 µM)	129	70.2	207	360	223	113	117	62.5	324	217	111	52.1	103	25.9
Cc1ccc(Nc2nccc(N(C)c3ccc4c(C)n(C)nc4c3)n2)cc1S(N)(=O)=O [Pazopanib] + Cc1cc(Nc2cc(N3CCN(C)CC3)nc(/C=C/c3ccccc3)n2)n[nH]1 [ENMD2076] (first compound 0.4 µM, partner dose 0.04 µM)	72.8	57.3	111	131	94.4	101	22.5	75.7	157	160	87.7	143	120	96.8
O=C(/C=C/c1cccnc1)NCCCCC1CCN(C(=O)c2ccccc2)CC1 + C[C@]1(O)C[C@@H](c2nc(-c3ccc4ccc(-c5ccccc5)nc4c3)c3c(N)nccn32)C1 [OSI906] (first compound 0.01 µM, partner dose 0.4 µM)	730	470	127	193	171	739	145	227	105	119	20.9	51.8	119	77
O=C(/C=C/c1cccnc1)NCCCCC1CCN(C(=O)c2ccccc2)CC1 + COc1ccc(C2=N[C@@H](c3ccc(Cl)cc3)[C@@H](c3ccc(Cl)cc3)N2C(=O)N2CCNC(=O)C2)c(OC(C)C)c1 [Nutlin-3] (first compound 0.01 µM, partner dose 0.1 µM)	316	55.8	34.9	159	83.8	638	128	91.7	40.6	27	95.9	80.7	112	177
O=c1[nH]nc(Sc2ncc([N+](=O)[O-])s2)n1-c1ccc2c(c1)OCCO2 + C[C@@H](N)c1ccc(C(=O)Nc2ccnc3[nH]ccc23)cc1 [RKI983] (first compound 0.2 µM, partner dose 0.4 µM)	295	213	63.1	291	88.5	57.2	83.1	192	24.9	250	98.1	63.8	203	118
Cc1cc(Nc2cc(N3CCN(C)CC3)nc(Sc3ccc(NC(=O)C4CC4)cc3)n2)n[nH]1 [Tozasertib] + Cn1sc(=O)n(Cc2ccccc2)c1=O [TDZD-8] (first compound 0.006 µM, partner dose 0.4 µM)	56.2	79.8	137	332	100	83.7	41.3	67.5	112	61.6	102	45.6	85	27.3
CCCCCCCCCCCCCCCCCCOP(=O)([O-])OC1CC[N+](C)(C)CC1 [Perifosine] + CC(C)C[C@H](NC(=O)[C@H](Cc1ccccc1)NC(=O)c1cnccn1)B(O)O [Bortezomib] (first compound 0.4 µM, partner dose 0.001 µM)	35.5	194	224	196	371	131	27.5	167	159	94.5	117	112	122	1420
O=c1[nH]nc(Sc2ncc([N+](=O)[O-])s2)n1-c1ccc2c(c1)OCCO2 + CC(C)C[C@H](NC(=O)[C@H](Cc1ccccc1)NC(=O)c1cnccn1)B(O)O [Bortezomib] (first compound 0.2 µM, partner dose 0.001 µM)	74.7	61.9	133	29.6	67.6	52.2	134	36.4	55.2	71.7	107	256	136	95.9
Cc1ccc(Nc2nccc(N(C)c3ccc4c(C)n(C)nc4c3)n2)cc1S(N)(=O)=O [Pazopanib] + OCc1c[nH]c2ccccc12 [Indole-3-carbinol] (first compound 0.4 µM, partner dose 0.8 µM)	99.6	89.9	105	132	72.9	120	44.5	50.9	91	162	105	42.2	99.7	46.2

Reformatted with bars between the fields: entries from further up.
Compound | cleaved PARP positive nuclei fraction [1] [%] | cleaved PARP positive nuclei fraction [2] [%] | cleaved PARP positive nuclei fraction [3] [%] | cleaved PARP positive nuclei fraction [4] [%] | cleaved PARP positive nuclei fraction [5] [%] | cleaved PARP positive nuclei fraction [6] [%] | cleaved PARP positive nuclei fraction [7] [%] | cleaved PARP positive nuclei fraction [8] [%] | cleaved PARP positive nuclei fraction [9] [%] | cleaved PARP positive nuclei fraction [10] [%] | cleaved PARP positive nuclei fraction [11] [%] | cleaved PARP positive nuclei fraction [12] [%] | cleaved PARP positive nuclei fraction [13] [%] | cleaved PARP positive nuclei fraction [14] [%]
Cc1cn(-c2cc(NC(=O)c3ccc(C)c(Nc4nccc(-c5cccnc5)n4)c3)cc(C(F)(F)F)c2)cn1 [nilotinib] + CN1CCN(c2ccc3nc(-c4c(N)c5c(F)cccc5[nH]c4=O)[nH]c3c2)CC1 [Dovitinib] (first compound 0.2 µM, partner dose 0.1 µM) | 51.8 | 37.6 | 88.4 | 92.7 | 40.7 | 73.4 | 119 | 37 | 41.5 | 25.3 | 38.6 | 19.8 | 81.9 | 37.3
COc1cc([C@@H]2c3cc4c(cc3[C@@H](O[C@@H]3O[C@@H]5CO[C@@H](C)O[C@H]5[C@H](O)[C@H]3O)[C@H]3COC(=O)[C@H]23)OCO4)cc(OC)c1O [etoposide] + Nc1nc(F)nc2c1ncn2[C@@H]1O[C@H](CO)[C@@H](O)[C@@H]1O [fludarabine] (first compound 0.02 µM, partner dose 0.2 µM) | 98.3 | 398 | 38 | 271 | 179 | 369 | 944 | 122 | 185 | 58.3 | 109 | 1260 | 87.9 | 98.6
